Compound in test [1]: ClCC(=O)N[C@@H]1CCCc2ccccc12
Kind of test: log2 mean competition ratio of IA-DTB cysteine labelling (DMSO/compound) (log2 ratio); higher = stronger cysteine engagement by compound. The note with it: treatment time: 4 h, cell line lysate: HEK293T. How it is done:
(§1)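 IA-DTB competitive cysteine chemoproteomics in HEK293T RIPA lysate. Lysates were treated with compound 29 or 30 at 50 or 200 µM for 4 h, then IA-DTB (500 µM, 1 h), trypsin-digested, NeutrAvidin-enriched and analysed by diaPASEF. Competition ratio = intensity DMSO / intensity compound (n=4 treated, n=64 DMSO); binding: mean log2 CR ≥ 1 and p ≤ 0.05 plus QC filters. Target is the cysteine site.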

Sequences of proteins named here, by UniProt entry; tags and fusion partners are left off. A change or cut given only in a name is not applied to a line headed by its entry.
UniProt O00192: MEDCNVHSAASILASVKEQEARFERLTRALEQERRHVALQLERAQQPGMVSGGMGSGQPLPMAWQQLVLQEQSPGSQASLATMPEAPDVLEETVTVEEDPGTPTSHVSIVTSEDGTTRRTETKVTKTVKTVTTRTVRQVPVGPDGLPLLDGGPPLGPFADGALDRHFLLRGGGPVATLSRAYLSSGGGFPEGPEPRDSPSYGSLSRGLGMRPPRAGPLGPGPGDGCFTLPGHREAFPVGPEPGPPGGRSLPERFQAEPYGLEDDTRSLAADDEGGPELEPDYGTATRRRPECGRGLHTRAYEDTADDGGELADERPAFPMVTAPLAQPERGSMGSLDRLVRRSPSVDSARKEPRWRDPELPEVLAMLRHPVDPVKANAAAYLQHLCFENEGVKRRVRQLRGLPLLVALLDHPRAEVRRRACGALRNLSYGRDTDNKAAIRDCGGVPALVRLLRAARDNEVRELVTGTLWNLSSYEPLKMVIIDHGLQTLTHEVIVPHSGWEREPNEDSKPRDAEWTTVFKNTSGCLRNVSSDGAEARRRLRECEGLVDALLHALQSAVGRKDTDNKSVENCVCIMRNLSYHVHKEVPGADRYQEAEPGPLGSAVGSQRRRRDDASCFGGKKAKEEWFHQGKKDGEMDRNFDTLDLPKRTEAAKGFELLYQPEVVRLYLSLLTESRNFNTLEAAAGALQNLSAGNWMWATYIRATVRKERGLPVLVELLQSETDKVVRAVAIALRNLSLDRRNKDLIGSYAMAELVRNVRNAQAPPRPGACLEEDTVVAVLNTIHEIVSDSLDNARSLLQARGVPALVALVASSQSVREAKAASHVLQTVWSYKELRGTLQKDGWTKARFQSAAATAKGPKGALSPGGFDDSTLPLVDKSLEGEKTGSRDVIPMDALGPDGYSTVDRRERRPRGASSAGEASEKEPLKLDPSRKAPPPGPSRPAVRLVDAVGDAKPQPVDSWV
UniProt Q4LE39: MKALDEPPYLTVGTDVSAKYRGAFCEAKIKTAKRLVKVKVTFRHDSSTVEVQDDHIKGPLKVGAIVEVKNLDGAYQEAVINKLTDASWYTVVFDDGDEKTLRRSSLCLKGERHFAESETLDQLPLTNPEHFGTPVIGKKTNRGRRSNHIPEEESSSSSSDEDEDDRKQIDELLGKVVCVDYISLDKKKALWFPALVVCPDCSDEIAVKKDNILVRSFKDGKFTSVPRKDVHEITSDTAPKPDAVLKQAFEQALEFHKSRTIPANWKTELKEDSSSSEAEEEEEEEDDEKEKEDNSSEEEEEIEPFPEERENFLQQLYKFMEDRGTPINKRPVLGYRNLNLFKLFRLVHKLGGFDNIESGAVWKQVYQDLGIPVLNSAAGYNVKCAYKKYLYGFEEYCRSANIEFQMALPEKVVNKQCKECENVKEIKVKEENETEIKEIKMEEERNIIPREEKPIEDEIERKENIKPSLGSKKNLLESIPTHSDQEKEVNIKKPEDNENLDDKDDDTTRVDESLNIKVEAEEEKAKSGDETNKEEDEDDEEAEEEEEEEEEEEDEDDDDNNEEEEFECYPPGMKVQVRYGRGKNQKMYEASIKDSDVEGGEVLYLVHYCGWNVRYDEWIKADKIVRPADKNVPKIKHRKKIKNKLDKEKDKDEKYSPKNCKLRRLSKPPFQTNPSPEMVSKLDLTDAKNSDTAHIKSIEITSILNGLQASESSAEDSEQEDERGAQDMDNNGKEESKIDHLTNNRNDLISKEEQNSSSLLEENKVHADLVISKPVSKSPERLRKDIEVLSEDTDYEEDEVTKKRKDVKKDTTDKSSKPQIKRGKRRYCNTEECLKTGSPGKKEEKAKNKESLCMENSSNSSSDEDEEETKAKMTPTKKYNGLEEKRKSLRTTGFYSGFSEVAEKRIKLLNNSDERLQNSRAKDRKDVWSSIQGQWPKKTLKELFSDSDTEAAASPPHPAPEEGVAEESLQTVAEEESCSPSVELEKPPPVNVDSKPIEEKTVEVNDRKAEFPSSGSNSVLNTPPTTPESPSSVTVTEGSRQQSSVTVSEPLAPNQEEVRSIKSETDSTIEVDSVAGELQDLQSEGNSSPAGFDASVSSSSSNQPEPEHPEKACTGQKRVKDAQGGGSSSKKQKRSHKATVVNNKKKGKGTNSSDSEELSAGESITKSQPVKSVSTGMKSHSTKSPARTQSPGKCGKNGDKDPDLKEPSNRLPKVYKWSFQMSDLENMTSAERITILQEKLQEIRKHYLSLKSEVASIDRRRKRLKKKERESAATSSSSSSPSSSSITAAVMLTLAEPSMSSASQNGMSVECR
UniProt P18085: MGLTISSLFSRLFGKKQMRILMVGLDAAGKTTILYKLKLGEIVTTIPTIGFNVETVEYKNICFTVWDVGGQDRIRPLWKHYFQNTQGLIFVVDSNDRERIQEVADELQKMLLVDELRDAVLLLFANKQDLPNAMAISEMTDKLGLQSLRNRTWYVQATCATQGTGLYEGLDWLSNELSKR
UniProt Q9UNA1: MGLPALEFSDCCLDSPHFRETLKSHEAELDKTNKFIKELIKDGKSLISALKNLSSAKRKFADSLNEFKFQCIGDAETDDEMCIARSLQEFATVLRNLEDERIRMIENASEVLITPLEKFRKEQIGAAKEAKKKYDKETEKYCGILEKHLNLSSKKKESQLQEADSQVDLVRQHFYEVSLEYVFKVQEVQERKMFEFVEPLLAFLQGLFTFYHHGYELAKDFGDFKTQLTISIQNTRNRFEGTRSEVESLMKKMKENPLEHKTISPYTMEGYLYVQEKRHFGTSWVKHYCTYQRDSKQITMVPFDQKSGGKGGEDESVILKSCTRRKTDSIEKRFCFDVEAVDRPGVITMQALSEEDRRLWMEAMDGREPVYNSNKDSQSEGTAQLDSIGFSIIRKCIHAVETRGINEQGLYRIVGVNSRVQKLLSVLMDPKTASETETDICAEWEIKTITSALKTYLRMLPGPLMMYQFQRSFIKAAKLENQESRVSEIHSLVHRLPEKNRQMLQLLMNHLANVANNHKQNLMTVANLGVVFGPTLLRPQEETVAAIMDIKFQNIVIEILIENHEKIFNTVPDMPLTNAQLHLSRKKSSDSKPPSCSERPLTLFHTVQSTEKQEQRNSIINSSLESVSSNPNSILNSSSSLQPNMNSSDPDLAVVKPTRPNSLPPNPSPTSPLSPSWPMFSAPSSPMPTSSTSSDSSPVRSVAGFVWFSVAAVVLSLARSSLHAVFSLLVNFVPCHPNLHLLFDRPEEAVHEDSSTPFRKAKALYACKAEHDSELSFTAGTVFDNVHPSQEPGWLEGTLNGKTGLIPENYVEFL
UniProt Q15052: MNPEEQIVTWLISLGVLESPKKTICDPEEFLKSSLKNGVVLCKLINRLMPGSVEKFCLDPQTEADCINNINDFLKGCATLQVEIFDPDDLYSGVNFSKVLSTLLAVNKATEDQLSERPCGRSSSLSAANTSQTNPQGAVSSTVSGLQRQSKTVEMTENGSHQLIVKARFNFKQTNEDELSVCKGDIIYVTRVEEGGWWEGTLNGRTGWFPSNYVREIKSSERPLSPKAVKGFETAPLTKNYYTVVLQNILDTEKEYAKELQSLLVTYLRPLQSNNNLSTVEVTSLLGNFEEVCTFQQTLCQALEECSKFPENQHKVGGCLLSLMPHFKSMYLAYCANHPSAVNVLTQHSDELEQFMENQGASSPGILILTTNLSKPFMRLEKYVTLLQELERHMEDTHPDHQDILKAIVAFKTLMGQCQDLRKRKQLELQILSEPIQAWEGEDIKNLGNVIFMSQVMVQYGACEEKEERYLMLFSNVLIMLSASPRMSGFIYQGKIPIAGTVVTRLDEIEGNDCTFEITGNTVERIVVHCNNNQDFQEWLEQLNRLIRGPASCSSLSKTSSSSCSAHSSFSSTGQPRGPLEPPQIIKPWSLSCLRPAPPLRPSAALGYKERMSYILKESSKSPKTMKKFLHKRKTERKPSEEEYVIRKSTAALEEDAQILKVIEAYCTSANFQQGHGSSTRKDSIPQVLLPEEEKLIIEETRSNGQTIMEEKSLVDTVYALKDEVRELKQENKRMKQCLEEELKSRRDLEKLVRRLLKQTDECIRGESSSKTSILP
UniProt Q8N3C0: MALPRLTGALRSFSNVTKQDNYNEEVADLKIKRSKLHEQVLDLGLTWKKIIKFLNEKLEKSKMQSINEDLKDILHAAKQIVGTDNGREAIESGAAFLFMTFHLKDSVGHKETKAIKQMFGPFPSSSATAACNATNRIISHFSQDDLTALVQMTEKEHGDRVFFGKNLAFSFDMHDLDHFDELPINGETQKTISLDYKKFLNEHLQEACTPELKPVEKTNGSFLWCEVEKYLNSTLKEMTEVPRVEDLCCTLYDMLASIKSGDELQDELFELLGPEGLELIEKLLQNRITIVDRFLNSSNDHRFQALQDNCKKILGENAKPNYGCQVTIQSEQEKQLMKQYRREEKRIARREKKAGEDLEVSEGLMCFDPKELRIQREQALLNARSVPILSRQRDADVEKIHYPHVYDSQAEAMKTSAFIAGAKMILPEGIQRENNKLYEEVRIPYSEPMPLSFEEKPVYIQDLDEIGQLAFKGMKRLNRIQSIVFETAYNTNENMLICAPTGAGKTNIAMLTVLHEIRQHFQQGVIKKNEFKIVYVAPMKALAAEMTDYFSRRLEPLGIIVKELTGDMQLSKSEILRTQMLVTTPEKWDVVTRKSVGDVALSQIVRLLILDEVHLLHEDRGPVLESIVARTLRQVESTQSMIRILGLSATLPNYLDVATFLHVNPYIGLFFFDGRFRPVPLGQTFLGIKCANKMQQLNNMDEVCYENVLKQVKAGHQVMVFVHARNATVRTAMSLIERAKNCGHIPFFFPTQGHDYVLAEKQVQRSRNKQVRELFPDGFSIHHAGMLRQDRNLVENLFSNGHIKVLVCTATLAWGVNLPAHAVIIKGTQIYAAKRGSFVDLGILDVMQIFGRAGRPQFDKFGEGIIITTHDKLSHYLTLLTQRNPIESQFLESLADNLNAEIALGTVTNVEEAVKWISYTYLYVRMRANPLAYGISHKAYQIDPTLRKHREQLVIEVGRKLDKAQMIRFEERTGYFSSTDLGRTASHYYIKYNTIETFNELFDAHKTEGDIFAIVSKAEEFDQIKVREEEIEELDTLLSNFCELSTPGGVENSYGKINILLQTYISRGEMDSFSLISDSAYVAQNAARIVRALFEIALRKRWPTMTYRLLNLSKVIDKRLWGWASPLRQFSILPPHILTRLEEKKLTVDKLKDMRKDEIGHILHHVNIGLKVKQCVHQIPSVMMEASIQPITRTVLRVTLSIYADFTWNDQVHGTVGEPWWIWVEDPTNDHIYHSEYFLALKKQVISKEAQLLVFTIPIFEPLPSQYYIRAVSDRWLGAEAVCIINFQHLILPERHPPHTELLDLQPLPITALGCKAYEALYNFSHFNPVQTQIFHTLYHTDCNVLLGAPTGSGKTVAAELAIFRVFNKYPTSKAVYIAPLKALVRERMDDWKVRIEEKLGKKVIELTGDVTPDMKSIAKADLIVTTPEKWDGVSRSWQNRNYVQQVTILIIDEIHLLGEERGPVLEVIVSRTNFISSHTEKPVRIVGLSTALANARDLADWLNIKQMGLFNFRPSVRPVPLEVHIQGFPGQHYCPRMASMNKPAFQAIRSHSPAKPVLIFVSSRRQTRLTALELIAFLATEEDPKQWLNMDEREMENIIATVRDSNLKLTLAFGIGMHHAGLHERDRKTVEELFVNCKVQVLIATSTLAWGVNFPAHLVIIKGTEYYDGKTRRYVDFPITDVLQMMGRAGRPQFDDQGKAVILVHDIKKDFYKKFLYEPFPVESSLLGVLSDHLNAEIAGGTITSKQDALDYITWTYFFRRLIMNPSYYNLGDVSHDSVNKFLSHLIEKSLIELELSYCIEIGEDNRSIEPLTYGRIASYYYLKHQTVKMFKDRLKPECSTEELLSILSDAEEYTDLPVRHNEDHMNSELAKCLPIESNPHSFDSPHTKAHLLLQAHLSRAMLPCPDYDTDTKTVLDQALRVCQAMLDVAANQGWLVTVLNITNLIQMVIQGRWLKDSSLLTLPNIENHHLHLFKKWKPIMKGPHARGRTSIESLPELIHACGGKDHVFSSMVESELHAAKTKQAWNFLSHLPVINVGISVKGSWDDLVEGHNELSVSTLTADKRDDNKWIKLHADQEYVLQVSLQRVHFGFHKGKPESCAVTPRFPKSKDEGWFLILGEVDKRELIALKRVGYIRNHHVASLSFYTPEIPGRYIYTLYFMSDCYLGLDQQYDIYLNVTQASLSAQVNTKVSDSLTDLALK

Compound in test [2]: ClCC(=O)N[C@H]1CCCc2ccccc12
Described as above. The note with it: treatment time: 4 h, cell line lysate: HEK293T. How it is done:
as §1

Some of the results follow. The data scatter; read single values as rough.

Regarding ARHGEF2 C306, the “log2 mean competition ratio” value in test [1] (50 µM) was -0.171; in test [1] (200 µM), 0.334; in test [2] (50 µM) it was 0.132; in test [2] (200 µM), 0.353.
As for ARVCF C226 (UniProt O00192), the “log2 mean competition ratio” value is 0.124 in test [1] (50 µM), 0.365 in test [1] (200 µM), -0.476 in test [2] (50 µM) and 0.244 in test [2] (200 µM).
Turning to ARID4B C178 (UniProt Q4LE39), the “log2 mean competition ratio” value is -0.158 in test [1] (50 µM), 0.109 in test [1] (200 µM), -0.369 in test [2] (50 µM) and -0.145 in test [2] (200 µM).
Taken in the same sequence, the figures for ARF4 C62 (UniProt P18085) were 0.151, 0.0297, 0.551 and 0.0351.
With ARHGAP26 C142 (UniProt Q9UNA1), the “log2 mean competition ratio” value was -0.105 in test [1] (50 µM), -0.142 in test [1] (200 µM), -0.0121 in test [2] (50 µM) and 0.0874 in test [2] (200 µM).
Take ARHGEF6 C25 (UniProt Q15052): the “log2 mean competition ratio” value is -0.318 in test [1] (50 µM), 0.201 in test [1] (200 µM), -0.553 in test [2] (50 µM) and 0.217 in test [2] (200 µM).
Taken in the same sequence, the figures for ASCC3 C225 (UniProt Q8N3C0) were -0.13, -0.213, -0.153 and -0.103.

The record behind these values is the supplement of paper PMC11732987, “Enantioselective OTUD7B fragment discovery through chemoproteomics screening and high-throughput optimisation” (Communications Chemistry, 2025).
